Experimental data taken from patent US20250059271A1 (BARRELMAN BIOSCIENCES, published 2025).
Results are given in words; binding and its absence hold for the method and conditions named. Some entries that bind do so weakly or less than the wild type.

Tests used:
[1] = biological target: T1, canine recombinant progastrin (canine) (UniProt P01353); assay: sandwich ELISA
T1 sequence (looked up): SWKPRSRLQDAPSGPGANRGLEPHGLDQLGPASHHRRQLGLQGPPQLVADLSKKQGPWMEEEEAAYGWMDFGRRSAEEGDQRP

[2] = biological target: T1, canine recombinant progastrin (canine); assay: sandwich ELISA; the sheet prints coating Ab 4 µg/mL 2-A3, detector Ab 0.5 µg/mL 1-H2, streptavidin-HRP 0.15 µg/mL (the text, paragraph 109, gives 1-H2 as coat and biotinylated 2-A3 as detector); progastrin concentration varied
[3] = biological target: T1, canine recombinant progastrin (canine); assay: sandwich ELISA, coat 1-H2, detect biotinylated 2-A3
[4] = biological target: T1, canine recombinant progastrin (canine); assay: sandwich ELISA; the sheet prints coating Ab 4 µg/mL 2-A3, detector Ab 0.5 µg/mL 1-H2, streptavidin-HRP 0.15 µg/mL (the text, paragraph 112, gives 1-H2 as coat and biotinylated 2-A3 as detector); sample concentration varied
dProgastrin-SUMO protein [5] = biological target: T2, dProgastrin-SUMO protein (dog, UniProt P01353 22-104); assay: sandwich ELISA 3
T2 construct: Unknown whether the listing entry 103 holds the tag; also called dProg-Sumo protein; dog progastrin His-SUMO protein; not shown: N-terminal His-SUMO tag
T2 sequence: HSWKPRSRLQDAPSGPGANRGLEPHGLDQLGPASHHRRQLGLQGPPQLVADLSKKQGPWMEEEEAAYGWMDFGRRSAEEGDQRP

dProgastrin-SUMO protein [6] = biological target: T2, dProgastrin-SUMO protein; assay: ELISA on dProgastrin-Sumo
dProgastrin-SUMO protein [7] = biological target: T2, dProgastrin-SUMO protein; assay: sandwich ELISA 2
dProgastrin-SUMO protein [8] = biological target: T2, dProgastrin-SUMO protein; assay: sandwich ELISA 1

Measured: binding

B1: dProg-2-A3 mAb (antibody, V domains shown)
VH: QSVEESRGGLFKPTEPLTLTCTASGFTISSYHMGWVRQTPGKQLEWIGWIGSSGATYYASWATSRSTITRNTNDNTVTLKMTSLTAADTATYFCARSGWGSFDIWGPGALVTVSS
VL: AQVLTQTPASVSAAVGGTVTINCQSSQSVYNNDRLAWFQQKPGQPPKLLIYLASTLASGVPSRFKGSGSGTQFTLTIGEVQCDDAATYYCQSYYNGYIFGFGGGTEVVVKG
notes: Recombinant rabbit monoclonal antibody; same entries as dProg-2-F4; Biotinylated when used for detection; also called dprogastrin-2_A3 mAb
binds: [1] | [2] | [3] | [4]

B2: dProg-1-D6 mAb (antibody, V domains shown)
VH: QSLEESEGGLFKPTDTLTLTCTVSGFSLISYGVSWVRQAPGKGLEWIGGIWPGASTYYASWAKSRSTITRNTNLNTVTLKMTSLTAADTATYFCARNSVGWLWGPGTLVTVSS
VL: AQVLTQSASPVSAAVGGTVTINCQASQSIYKNNYLSWYHQKPGQPPKLLIYDASDLASGVPSRFSGSGSGTQFTLTISGVQCEDAATYYCQGEFSCSSADCFAFGGGTEVVVKG
binds: dProgastrin-SUMO protein [5] | dProgastrin-SUMO protein [6] | dProgastrin-SUMO protein [7]

B3: dProg-2-F4 mAb (antibody, V domains shown)
VH: QSVEESRGGLFKPTEPLTLTCTASGFTISSYHMGWVRQTPGKQLEWIGWIGSSGATYYASWATSRSTITRNTNDNTVTLKMTSLTAADTATYFCARSGWGSFDIWGPGALVTVSS
VL: AQVLTQTPASVSAAVGGTVTINCQSSQSVYNNDRLAWFQQKPGQPPKLLIYLASTLASGVPSRFKGSGSGTQFTLTIGEVQCDDAATYYCQSYYNGYIFGFGGGTEVVVKG
notes: Recombinant rabbit monoclonal antibody; same entries as dProg-2-A3; also called dprogastrin-2_F4
binds: dProgastrin-SUMO protein [8] | dProgastrin-SUMO protein [5] | dProgastrin-SUMO protein [6] | dProgastrin-SUMO protein [7]
